Our source for the binding values is article PMC5836524.

Amino acid sequences for entries named in this document (tags omitted). Residues count along the entry.
UniProt P62944, residues 616-937: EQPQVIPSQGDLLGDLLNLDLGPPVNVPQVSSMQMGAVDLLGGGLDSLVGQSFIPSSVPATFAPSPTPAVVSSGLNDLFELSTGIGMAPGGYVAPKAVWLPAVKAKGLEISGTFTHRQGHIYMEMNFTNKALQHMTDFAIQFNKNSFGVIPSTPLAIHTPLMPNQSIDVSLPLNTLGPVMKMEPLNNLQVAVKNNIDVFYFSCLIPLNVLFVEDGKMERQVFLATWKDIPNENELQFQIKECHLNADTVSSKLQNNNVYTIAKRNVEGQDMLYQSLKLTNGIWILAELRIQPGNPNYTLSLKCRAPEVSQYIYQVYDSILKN
UniProt Q00610: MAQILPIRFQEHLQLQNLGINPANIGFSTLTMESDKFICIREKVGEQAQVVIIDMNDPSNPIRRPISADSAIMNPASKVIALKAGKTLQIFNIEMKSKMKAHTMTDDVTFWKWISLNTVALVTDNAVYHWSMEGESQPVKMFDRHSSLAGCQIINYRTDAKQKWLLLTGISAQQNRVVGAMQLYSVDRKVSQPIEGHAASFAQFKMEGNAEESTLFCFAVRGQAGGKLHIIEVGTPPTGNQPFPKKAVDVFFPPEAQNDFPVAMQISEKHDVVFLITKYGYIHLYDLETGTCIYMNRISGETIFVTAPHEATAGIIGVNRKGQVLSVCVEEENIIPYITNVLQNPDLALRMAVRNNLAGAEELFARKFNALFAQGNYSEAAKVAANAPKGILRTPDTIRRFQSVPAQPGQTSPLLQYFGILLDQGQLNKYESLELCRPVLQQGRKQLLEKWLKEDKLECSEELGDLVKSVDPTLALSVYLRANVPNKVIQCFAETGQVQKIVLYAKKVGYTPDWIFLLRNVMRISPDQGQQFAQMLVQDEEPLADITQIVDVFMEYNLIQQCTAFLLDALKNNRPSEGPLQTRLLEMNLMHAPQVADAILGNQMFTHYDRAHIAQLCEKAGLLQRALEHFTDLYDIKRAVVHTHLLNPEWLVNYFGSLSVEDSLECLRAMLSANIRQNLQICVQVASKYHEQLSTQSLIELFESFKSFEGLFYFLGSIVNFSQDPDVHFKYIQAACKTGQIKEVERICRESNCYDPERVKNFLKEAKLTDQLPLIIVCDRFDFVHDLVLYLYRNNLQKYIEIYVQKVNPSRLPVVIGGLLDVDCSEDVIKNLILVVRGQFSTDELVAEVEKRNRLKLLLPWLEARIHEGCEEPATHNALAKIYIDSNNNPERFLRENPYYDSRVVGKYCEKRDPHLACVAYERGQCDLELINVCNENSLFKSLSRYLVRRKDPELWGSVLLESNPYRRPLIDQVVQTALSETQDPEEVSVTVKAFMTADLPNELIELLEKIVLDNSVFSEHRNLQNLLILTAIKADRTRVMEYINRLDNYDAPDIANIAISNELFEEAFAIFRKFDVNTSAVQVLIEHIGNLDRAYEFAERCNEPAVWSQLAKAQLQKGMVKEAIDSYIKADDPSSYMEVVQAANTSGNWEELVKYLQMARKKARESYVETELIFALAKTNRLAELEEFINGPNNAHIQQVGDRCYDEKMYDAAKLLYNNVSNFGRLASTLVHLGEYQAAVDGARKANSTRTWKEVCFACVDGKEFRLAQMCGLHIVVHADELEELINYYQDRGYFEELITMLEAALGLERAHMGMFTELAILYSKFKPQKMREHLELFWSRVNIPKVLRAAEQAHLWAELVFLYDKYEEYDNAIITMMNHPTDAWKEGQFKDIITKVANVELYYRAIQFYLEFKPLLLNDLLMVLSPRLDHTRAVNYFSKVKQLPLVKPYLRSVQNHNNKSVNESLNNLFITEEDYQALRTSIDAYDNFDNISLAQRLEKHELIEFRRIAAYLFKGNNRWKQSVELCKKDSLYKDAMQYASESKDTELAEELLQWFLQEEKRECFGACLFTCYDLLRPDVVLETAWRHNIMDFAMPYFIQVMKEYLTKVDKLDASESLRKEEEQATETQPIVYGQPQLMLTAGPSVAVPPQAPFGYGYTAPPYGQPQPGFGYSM

Substitutions are numbered along the chain they refer to. These are yes or no findings as the source states them, for the method shown. Binding seen in cells or lysates may run through a third protein. Some binding calls cover weakened binding; strength is not graded here. For part of these data: Where a sequence is shown, tags or fusion partners need not be part of it.

Assay [1] concerns the target T1, EGFP-Eps15R aa 1-861 (ΔUIM) (mouse) (UniProt Q60902).
T1 sequence: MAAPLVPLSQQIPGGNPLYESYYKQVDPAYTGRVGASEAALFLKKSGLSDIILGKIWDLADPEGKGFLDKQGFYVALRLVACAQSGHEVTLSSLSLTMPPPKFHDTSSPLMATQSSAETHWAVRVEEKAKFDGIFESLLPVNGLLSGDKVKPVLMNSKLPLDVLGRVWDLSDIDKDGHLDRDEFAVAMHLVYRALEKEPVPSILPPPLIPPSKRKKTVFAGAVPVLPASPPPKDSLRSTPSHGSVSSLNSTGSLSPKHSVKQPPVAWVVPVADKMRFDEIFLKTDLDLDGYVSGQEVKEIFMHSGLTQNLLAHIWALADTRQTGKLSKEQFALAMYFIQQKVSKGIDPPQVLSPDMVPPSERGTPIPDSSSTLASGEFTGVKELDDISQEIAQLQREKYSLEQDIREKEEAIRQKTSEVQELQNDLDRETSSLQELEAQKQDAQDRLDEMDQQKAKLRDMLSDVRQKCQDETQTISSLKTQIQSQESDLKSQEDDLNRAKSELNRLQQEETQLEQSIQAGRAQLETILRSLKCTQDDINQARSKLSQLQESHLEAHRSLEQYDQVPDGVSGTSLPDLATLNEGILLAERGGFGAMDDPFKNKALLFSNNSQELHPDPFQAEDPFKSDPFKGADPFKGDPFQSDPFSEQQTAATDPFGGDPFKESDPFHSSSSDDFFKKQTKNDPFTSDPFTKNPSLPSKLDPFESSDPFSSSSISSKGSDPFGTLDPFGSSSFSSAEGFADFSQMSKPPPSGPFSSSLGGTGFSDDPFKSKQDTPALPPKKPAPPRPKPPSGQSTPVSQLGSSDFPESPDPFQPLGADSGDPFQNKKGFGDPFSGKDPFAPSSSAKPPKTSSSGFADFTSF
In words: co-IP; EGFP-tagged Eps15R, its truncations or mutant, EGFP-Eps15 or EGFP immunoprecipitated from HeLa cell extract (20 mM HEPES pH 7.4, 100 mM NaCl, 0.5 mM TCEP, 0.1% NP-40; 4°C); immunoblot for clathrin, AP2 β-adaptin and EGFP. Background: Immunoblotting shows a protein as a band on a membrane.

The target in assay [2] is GST-AP2-β2-appendage with hinge (aa 616-937) (rat) (UniProt P62944). Nature of the assay: pull-down; GST-AP2-β-appendage with hinge on beads incubated with lysates from HeLa cells expressing EGFP-Eps15R wild type or the F703A, F722A, F728A mutant; clathrin and EGFP immunoblotting; only the target purified.
In assay [3] the target is T2, GST-Eps15R aa 699-729 (mouse) (UniProt Q60902).
T2 sequence: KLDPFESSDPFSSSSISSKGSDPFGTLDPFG
In words: pull-down; GST-tagged Eps15R or Eps15 motif domain constructs on beads incubated with detergent extracts from HeLa cells (100-200 μg lysate, 30-60 min, 4°C); immunoblot for clathrin and AP2 β-adaptin; only the target purified.

The target in assay [4] is T3, GST-Eps15R aa 701-747 F709A (mouse) (UniProt Q60902).
T3 sequence: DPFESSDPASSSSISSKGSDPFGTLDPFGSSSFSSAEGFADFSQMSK
Described as above.

The target in assay [5] is T4, GST-Eps15R aa 701-747 (mouse) (UniProt Q60902).
T4 sequence: T3 sequence with A9F
Described as above.

Assay [6] deals with T5, GST-Eps15R aa 699-709 (mouse) (UniProt Q60902).
T5 sequence: KLDPFESSDPF
The description is as above.

Assay [7] has as its target T6, GST-Eps15R aa 699-729 F728A (mouse) (UniProt Q60902).
T6 sequence: T2 sequence with F30A
Described as above.

The target of assay [8] is T7, GST-Eps15R aa 699-729 F703A (mouse) (UniProt Q60902).
T7 sequence: T2 sequence with F5A
The description is as above.

For assay [9], the target named is T8, GST-Eps15R aa 717-729 (mouse) (UniProt Q60902).
T8 sequence: KGSDPFGTLDPFG
Described as above.

The target of assay [10] is T9, GST-Eps15 aa 687-723 (human) (UniProt P42566).
T9 sequence: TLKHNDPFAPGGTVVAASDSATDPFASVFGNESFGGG
Described as above.

The target in assay [11] is T10, GST-Eps15R aa 699-729 F722A (mouse) (UniProt Q60902).
T10 sequence: T2 sequence with F24A
Described as above.

Assay [12] addresses T11, GST-Eps15R aa 701-747 D707A (mouse) (UniProt Q60902).
T11 sequence: T3 sequence with D7A, A9F
The description is as above.

In the case of “clathrin (endogenous, detected by blot for clathrin heavy chain) (from UniProt Q00610 1-1675)”, the binding entry in [1] was “binds”; in [2], “binds”; in [3], “binds”; in assay [4], “binds”; in assay [5], “binds”; in assay [6], “no binding”. Moreover, the binding result is “binds” in assay [7]; “binds” in [8]; “binds” in [9]; “no binding” in assay [10]; “binds” in assay [11]; “binds” in assay [12].
